These are yes or no findings as the source states them, for the method shown. In cells and extracts the contact can be indirect. Some entries that bind do so weakly or less than the wild type. Where a sequence is shown, tags or fusion partners need not be part of it.
Target: NPF6.2, BiFC fusion expressed in Nicotiana benthamiana (Arabidopsis) (UniProt Q9SZY4)
Experiment: split reporter

B1: NPF6.2, BiFC fusion expressed in Nicotiana benthamiana (protein, UniProt Q9SZY4 1-577)
chain: MESKGSWTVADAVDYKGRPADKSKTGGWITAALILGIEVVERLSTMGIAVNLVTYLMETMHLPSSTSANIVTDFMGTSFLLCLLGGFLADSFLGRFKTIGIFSTIQALGTGALAVATKLPELRPPTCHHGEACIPATAFQMTILYVSLYLIALGTGGLKSSISGFGSDQFDDKDPKEKAHMAFFFNRFFFFISMGTLLAVTVLVYMQDEVGRSWAYGICTVSMAIAIVIFLCGTKRYRYKKSQGSPVVQIFQVIAAAFRKRKMELPQSIVYLYEDNPEGIRIEHTDQFHLLDKAAIVAEGDFEQTLDGVAIPNPWKLSSVTKVEEVKMMVRLLPIWATTIIFWTTYAQMITFSVEQASTMRRNIGSFKIPAGSLTVFFVAAILITLAVYDRAIMPFWKKWKGKPGFSSLQRIAIGLVLSTAGMAAAALVEQKRLSVAKSSSQKTLPISVFLLVPQFFLVGAGEAFIYTGQLDFFITQSPKGMKTMSTGLFLTTLSLGFFVSSFLVSIVKRVTSTSTDVGWLADNINHGRLDYFYWLLVILSGINFVVYIICALWFKPTKGKDSVEKENGKGFSVEDC
binding: binds

Reference: doi:10.1101/2025.10.03.680249
